The other results are listed elsewhere or left out. These are further read-outs of the screen, such as a control signal, another cell line or another target. No call is given for them. The list favours compounds with an active or inconclusive main result. Potencies come from curve fits of mixed quality, noted in brackets.
Assay: qHTS Assay for Lipid Storage Modulators in Drosophila S3 Cells;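 for cell number change: cells counted by Cell Tracker Red CMTPX staining in the red channel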
Conditions: BODIPY lipid droplet fluorescence, 18-24 h; for cell number change: measured here: cell count max response, cells fed with added oleic acid
How it was run: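 Drosophila S3 cells got compounds at several concentrations plus oleic acid (400 uM solution). Laser-scanning cytometry with 488 nm excitation read lipid droplets at 500-530 nm and cells at 575-640 nm. Percent activity was relative to 20 uM Triacsin C.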

[1] = measured here: cell number channel AC50, cells fed with added oleic acid
[2] = measured here: lipid fluorescence (Fed channel) AC50, cells fed with added oleic acid

SMILES: COc1ccc(OCCCC(=O)NCCc2ccc(OC)c(OC)c2)cc1
- AC50 [1]: 2.06 µM [falling, partial curve, poor fit]
- AC50 [2]: 0.651 µM [falling, full curve, poor fit]

SMILES: CS(=O)(=O)Nc1ccc(C(=O)NC2CC3CCC2C3)cc1 (stereo unspecified)
- cell number change: 57.3%
- AC50 [1]: 20.6 µM [rising, partial curve]

SMILES: NC(Cc1cccc2nsnc12)C(=O)O (stereo unspecified)
- cell number change: 4.09%
- AC50 [2]: 5.17 µM [falling, single point]

SMILES: COc1cc(OC)cc(C(=O)NNC(=O)CCCOc2ccccc2)c1
- cell number change: -34.5%
- AC50 [1]: 29.1 µM [falling, single point]
- AC50 [2]: 29.1 µM [falling, single point]

SMILES: COc1ccc2nc(C)cc(N3CC(C)OC(C)C3)c2c1 (stereo unspecified)
- cell number change: 26.2%
- AC50 [2]: 0.116 µM [falling, partial curve, poor fit]

SMILES: CC1CCN(C(=O)c2[nH]cnc2C(=O)NCCCCCNC(=O)OC(C)(C)C)CC1
- cell number change: 3.25%
- AC50 [2]: 1.03 µM [falling, full curve, poor fit]

SMILES: CN(C(=O)CSc1nnc(-c2cccnc2)o1)C1CCCCC1
- cell number change: -0.501%
- AC50 [2]: 1.64 µM [falling, single point]

SMILES: COc1ccc(CCN2C(=S)N(C)C(=O)C2CC(=O)Nc2ccc(F)cc2)cc1 (stereo unspecified)
- cell number change: 14.4%
- AC50 [1]: 0.259 µM [rising, full curve, poor fit]
- AC50 [2]: 0.58 µM [falling, single point]

SMILES: CC1CC(C)CN(CCCNC(=O)C2CCN(c3ncnc4c3sc3cccc(F)c34)CC2)C1 (stereo unspecified)
- cell number change: 18.6%
- AC50 [2]: 29.1 µM [rising, single point]

SMILES: COc1ccc(C)cc1NC(=O)c1ccc(N(C)S(C)(=O)=O)cc1
- cell number change: 171%
- AC50 [1]: 20.6 µM [rising, single point]
- AC50 [2]: 5.17 µM [rising, single point]

SMILES: Cc1ccccc1Nc1scc(-c2ccc(Cl)cc2)[n+]1-c1ccccc1C
- cell number change: -12.5%
- AC50 [1]: 4.11 µM [rising, partial curve, poor fit]

SMILES: CC(=O)C1C(c2cccc(F)c2)NC(=O)NC1(O)C(F)(F)F (stereo unspecified)
- cell number change: -23.7%
- AC50 [1]: 0.58 µM [falling, full curve, poor fit]

SMILES: CC1(C)Cc2c(sc3c2C(=O)N(c2ccccc2)C2=NCCN23)CS1
- cell number change: -16.7%
- AC50 [1]: 0.164 µM [falling, full curve, poor fit]
- AC50 [2]: 4.61 µM [falling, single point]

SMILES: N#Cc1cc2c([nH]c1=O)CCCC2
- cell number change: -6.53%
- AC50 [2]: 4.11 µM [rising, full curve, poor fit]

SMILES: Fc1ccc(Oc2cnns2)cc1
- cell number change: -60.9%

SMILES: CN(C)c1ccc2nc3c(=O)[nH]c(=O)nc-3n(CC(O)C(O)C(O)CO)c2c1 (stereo unspecified)
- cell number change: -88.9%

SMILES: COC(=O)C1=C(CN2CCN(C)CC2)NC(=O)NC1c1cc(C)ccc1C (stereo unspecified)
- cell number change: 16%
- AC50 [2]: 3.26 µM [falling, partial curve]

SMILES: O=C(O)CCCC(=O)Nc1ccc(C(=O)N2CCCCC2)c(Cl)c1
- cell number change: 6.54%
- AC50 [2]: 1.16 µM [falling, full curve]

SMILES: CCN(CC)C(=O)C1CCN(Cc2ccc(OCc3ccccc3)cc2)CC1
- cell number change: 22.1%
- AC50 [2]: 29.1 µM [rising, single point]

SMILES: CCCCC1CCC(C(=O)Nc2ccc(S(=O)(=O)Nc3nccs3)cc2)CC1 (stereo unspecified)
- cell number change: -3.54%

SMILES: O=C(c1ccccc1)c1ccc(OCCCN2CCCCC2)cc1
- AC50 [2]: 6.51 µM [falling, single point]

SMILES: C=CCc1cccc2cc(C(=O)O)c(=O)oc12
- cell number change: -1.41%
- AC50 [2]: 0.103 µM [falling, partial curve, poor fit]

SMILES: O=C1C[C@@H](c2ccc(O[C@@H]3O[C@H](CO)[C@@H](O)[C@H](O)[C@H]3O)cc2)Oc2cc(O)ccc21
- cell number change: 6.26%
- AC50 [2]: 9.2 µM [rising, partial curve, poor fit]

SMILES: CCCCOc1nc2ccccc2nc1C(C#N)C(=O)NC1CCCCC1 (stereo unspecified)
- cell number change: -16.5%
- AC50 [1]: 0.116 µM [falling, full curve, poor fit]

SMILES: Cc1cccc(Nc2nc(N3CCCCC3)nc(N3CCCCC3)n2)c1
- cell number change: 16.9%
- AC50 [2]: 2.91 µM [rising, partial curve, poor fit]

SMILES: Cc1cccnc1NC(=O)CNC(=O)c1ccccc1
- cell number change: 9.92%
- AC50 [2]: 0.0651 µM [rising, full curve, poor fit]

SMILES: C=CCc1cc(/C=N/NC(=O)CSc2nnc(CCCc3ccc(OC)cc3)o2)cc(OC)c1O
- cell number change: -53.2%
- AC50 [1]: 23.1 µM [falling, partial curve, poor fit]

SMILES: N#CC1=C(SCC(=O)c2ccc(Br)cc2)NC2=C(C(=O)CCC2)C1c1ccco1 (stereo unspecified)
- cell number change: -20%
- AC50 [2]: 0.517 µM [rising, full curve]

SMILES: COc1ccc(N2CCN(C(=S)NCc3ccccc3)CC2)cc1
- cell number change: 40.2%
- AC50 [1]: 25.9 µM [rising, single point]
- AC50 [2]: 6.51 µM [falling, single point]

SMILES: O=C(NCCN1CCOCC1)c1csc2c1CCCCC2
- cell number change: 2.61%
- AC50 [2]: 16.4 µM [rising, partial curve, poor fit]

SMILES: CC1CCN(S(=O)(=O)c2cn(CC(=O)Nc3ccc(C#N)cc3)cn2)CC1
- cell number change: -7.67%

SMILES: O=C(Nn1c(-c2ccncc2)nc2ccccc2c1=O)c1ccccc1Br
- cell number change: 24.3%

SMILES: COc1cc2cc(CN(Cc3cccs3)C(=S)Nc3ccccc3)c(=O)[nH]c2cc1OC
- cell number change: 16.9%
- AC50 [1]: 6.51 µM [rising, partial curve, poor fit]
- AC50 [2]: 5.17 µM [rising, single point]

SMILES: COc1ccc(C2CC(c3cccs3)=NN2S(C)(=O)=O)cc1 (stereo unspecified)
- cell number change: -1.15%
- AC50 [2]: 0.13 µM [falling, full curve, poor fit]

SMILES: Oc1ccc2ccccc2c1/C=N/Nc1ccccc1
- cell number change: -6.98%
- AC50 [2]: 29.1 µM [rising, single point]

SMILES: N#CCSc1ccc2nc(-c3ccccc3)cn2n1
- cell number change: 16.2%

SMILES: Cc1cc(C)cc(NC(=O)NCc2c(-c3ccccc3)noc2C)c1
- cell number change: -34.5%
- AC50 [1]: 6.51 µM [falling, partial curve, poor fit]
- AC50 [2]: 7.31 µM [falling, partial curve]

SMILES: O=C(N1CCOCC1)C(F)(F)C(=O)N1CCOCC1
- cell number change: -13.8%
- AC50 [2]: 23.1 µM [falling, single point]

SMILES: COc1cccc(CNC(=O)N2CCN(c3ccccc3C)CC2)c1
- cell number change: 22.6%
- AC50 [1]: 0.013 µM [rising, full curve, poor fit]
- AC50 [2]: 29.1 µM [rising, partial curve]

SMILES: O=C(Nc1ccc(Cl)cc1)OCCn1nnnc1C(c1ccccc1Cl)N1CCOCC1 (stereo unspecified)
- cell number change: -19.7%

SMILES: COc1ccc(Oc2cnc3ccccc3n2)cc1
- cell number change: 15.9%

SMILES: O=C(CN1C(=O)NC2(CCOc3ccccc32)C1=O)c1ccc(F)cc1 (stereo unspecified)
- cell number change: 3.52%
- AC50 [2]: 0.82 µM [rising, partial curve, poor fit]

SMILES: Cc1cccc(N2CCN(C(=O)CCCSc3nc4ccccc4[nH]3)CC2)c1C
- cell number change: -4.46%
- AC50 [2]: 32.6 µM [rising, partial curve, poor fit]

SMILES: COc1ccc([C@H]2CC(=O)C=C(c3ccc(CO)cc3)C2)cc1
- cell number change: 17.9%

SMILES: COc1ccccc1CNC(=O)COc1ccccc1C
- cell number change: 4.56%

SMILES: COc1ccc(C(=O)COC(=O)c2sc(C)nc2C)cc1Cl
- cell number change: -11%

SMILES: OCC1(Cc2ccc(F)cc2)CCCN(CCCC(F)(F)F)C1 (stereo unspecified)
- cell number change: 2.33%
- AC50 [2]: 0.146 µM [rising, full curve, poor fit]

SMILES: Cn1c(=O)c2c(SCC(=O)N3CCCCC3)nc(-c3ccccc3F)nc2n(C)c1=O
- cell number change: -36.8%
- AC50 [1]: 4.61 µM [falling, full curve, poor fit]
- AC50 [2]: 6.51 µM [falling, single point]

SMILES: CN(C)NC(=S)NC1CC2CCC1C2 (stereo unspecified)
- cell number change: 6.25%
- AC50 [2]: 4.61 µM [rising, single point]

SMILES: Cc1cccc(NC(=O)[C@H](Cc2ccccc2)NC(=O)OCc2ccccc2)c1
- cell number change: 33.3%

SMILES: CC(C)CNC(=S)N1CCN(Cc2ccc3c(c2)OCO3)CC1
- cell number change: 9.6%

SMILES: CCCOc1c(Cl)cc(C(=O)Nc2ccc3c(c2)OCO3)cc1OCC
- AC50 [1]: 0.082 µM [rising, full curve, poor fit]
- AC50 [2]: 0.082 µM [rising, full curve, poor fit]

SMILES: COC(=O)c1c(C)[nH]c(C(=O)COC(=O)c2c(C)noc2C)c1C
- cell number change: -5.84%

SMILES: COc1ccc(OC)c(C(=O)NC(CC(N)=O)c2ccc(N3CCC(Cc4ccccc4)CC3)c([N+](=O)[O-])c2)c1 (stereo unspecified)
- cell number change: 4.79%
- AC50 [2]: 29.1 µM [rising, partial curve, poor fit]

SMILES: CCOCCCNC(=S)N1CCN(c2nc(-c3ccc(F)cc3)cs2)CC1
- cell number change: -21.1%
- AC50 [2]: 29.1 µM [falling, single point]

SMILES: C=CCn1c(Cc2ccc(OC(C)C)c(Cl)c2)nnc1SCC(N)=O
- cell number change: 4.21%
- AC50 [1]: 0.13 µM [falling, full curve, poor fit]

SMILES: COC(=O)c1ccccc1NC(=O)CCC(=O)N1CCSc2ccccc21
- cell number change: 6.63%
- AC50 [2]: 3.66 µM [rising, single point]

SMILES: COC(=O)/C(=C/c1cccc([N+](=O)[O-])c1)NC(=O)c1ccc(OC)cc1
- cell number change: -0.244%
- AC50 [2]: 13 µM [falling, single point]

SMILES: CCCc1cc(-n2ccnc2)n2c(nc3ccccc32)c1C#N
- AC50 [1]: 0.326 µM [rising, full curve]
- AC50 [2]: 0.411 µM [rising, full curve]

SMILES: CC1CCN(C(=O)CSC2=NS(=O)(=O)c3cc(F)ccc3N2)CC1
- cell number change: 25%

SMILES: Cc1ccnc(NS(=O)(=O)c2ccc(NC(=O)c3cc(=O)c4ccccc4o3)cc2)n1
- cell number change: -19.2%

SMILES: COc1ccnc(Nc2ccc(C)c(C)c2)c1C#N
- cell number change: 6.31%
- AC50 [2]: 29.1 µM [falling, partial curve]

Reference: PubChem BioAssay AID2685 (National Center for Advancing Translational Sciences (NCATS), 2010)
